From the supplement of paper PMC10849652
Some of the results follow.

By UniProt entry, the sequences of proteins in these tests, tags left out. Where a name states a change or a piece, a line headed by the entry shows the natural chain unless it says otherwise.
UniProt P61018: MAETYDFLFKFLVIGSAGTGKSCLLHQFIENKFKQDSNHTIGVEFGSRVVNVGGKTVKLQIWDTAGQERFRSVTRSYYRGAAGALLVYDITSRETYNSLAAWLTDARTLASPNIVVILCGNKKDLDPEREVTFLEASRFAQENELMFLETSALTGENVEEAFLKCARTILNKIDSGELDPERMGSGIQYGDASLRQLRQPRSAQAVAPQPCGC
UniProt Q9NR77: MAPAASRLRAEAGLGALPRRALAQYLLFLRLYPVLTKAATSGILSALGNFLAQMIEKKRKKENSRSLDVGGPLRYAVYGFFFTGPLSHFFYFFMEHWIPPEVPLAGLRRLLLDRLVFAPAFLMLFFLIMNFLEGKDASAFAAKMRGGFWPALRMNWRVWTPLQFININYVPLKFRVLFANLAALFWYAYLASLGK
UniProt Q9Y6I8: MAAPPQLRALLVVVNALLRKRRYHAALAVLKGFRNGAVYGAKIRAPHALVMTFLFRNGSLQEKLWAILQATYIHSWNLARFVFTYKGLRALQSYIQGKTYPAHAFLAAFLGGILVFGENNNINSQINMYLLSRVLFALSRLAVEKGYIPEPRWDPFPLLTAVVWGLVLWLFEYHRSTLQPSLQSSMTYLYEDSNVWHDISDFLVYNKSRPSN
UniProt O60518: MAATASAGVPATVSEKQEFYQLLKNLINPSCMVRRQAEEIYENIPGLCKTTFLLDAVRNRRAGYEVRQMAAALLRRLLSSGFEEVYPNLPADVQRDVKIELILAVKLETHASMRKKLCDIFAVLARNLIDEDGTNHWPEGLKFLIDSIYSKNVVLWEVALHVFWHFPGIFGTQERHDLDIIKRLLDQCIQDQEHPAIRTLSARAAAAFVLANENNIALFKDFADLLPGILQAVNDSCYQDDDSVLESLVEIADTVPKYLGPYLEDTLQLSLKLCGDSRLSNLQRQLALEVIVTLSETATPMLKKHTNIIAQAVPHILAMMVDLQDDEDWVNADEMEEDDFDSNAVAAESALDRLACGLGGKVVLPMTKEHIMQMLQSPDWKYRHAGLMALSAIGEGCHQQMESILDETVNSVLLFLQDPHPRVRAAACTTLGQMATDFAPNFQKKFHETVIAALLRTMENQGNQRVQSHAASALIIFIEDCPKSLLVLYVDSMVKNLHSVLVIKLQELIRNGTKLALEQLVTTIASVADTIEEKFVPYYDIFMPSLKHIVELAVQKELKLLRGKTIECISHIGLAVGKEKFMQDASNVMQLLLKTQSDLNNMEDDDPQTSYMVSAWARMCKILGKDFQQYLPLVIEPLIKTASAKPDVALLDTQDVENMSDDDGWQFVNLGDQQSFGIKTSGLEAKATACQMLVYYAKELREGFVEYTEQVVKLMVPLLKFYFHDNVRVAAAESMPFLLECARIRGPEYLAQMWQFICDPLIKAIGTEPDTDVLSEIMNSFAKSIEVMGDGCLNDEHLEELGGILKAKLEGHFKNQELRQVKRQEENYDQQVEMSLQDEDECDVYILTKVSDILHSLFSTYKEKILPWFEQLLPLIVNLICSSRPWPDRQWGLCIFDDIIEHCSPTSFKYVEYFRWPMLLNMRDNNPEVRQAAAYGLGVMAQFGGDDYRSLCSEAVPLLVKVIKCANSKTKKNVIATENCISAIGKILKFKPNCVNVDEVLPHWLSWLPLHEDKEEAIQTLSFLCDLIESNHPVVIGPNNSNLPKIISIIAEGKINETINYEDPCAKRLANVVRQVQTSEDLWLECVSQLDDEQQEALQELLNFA
UniProt Q3YEC7: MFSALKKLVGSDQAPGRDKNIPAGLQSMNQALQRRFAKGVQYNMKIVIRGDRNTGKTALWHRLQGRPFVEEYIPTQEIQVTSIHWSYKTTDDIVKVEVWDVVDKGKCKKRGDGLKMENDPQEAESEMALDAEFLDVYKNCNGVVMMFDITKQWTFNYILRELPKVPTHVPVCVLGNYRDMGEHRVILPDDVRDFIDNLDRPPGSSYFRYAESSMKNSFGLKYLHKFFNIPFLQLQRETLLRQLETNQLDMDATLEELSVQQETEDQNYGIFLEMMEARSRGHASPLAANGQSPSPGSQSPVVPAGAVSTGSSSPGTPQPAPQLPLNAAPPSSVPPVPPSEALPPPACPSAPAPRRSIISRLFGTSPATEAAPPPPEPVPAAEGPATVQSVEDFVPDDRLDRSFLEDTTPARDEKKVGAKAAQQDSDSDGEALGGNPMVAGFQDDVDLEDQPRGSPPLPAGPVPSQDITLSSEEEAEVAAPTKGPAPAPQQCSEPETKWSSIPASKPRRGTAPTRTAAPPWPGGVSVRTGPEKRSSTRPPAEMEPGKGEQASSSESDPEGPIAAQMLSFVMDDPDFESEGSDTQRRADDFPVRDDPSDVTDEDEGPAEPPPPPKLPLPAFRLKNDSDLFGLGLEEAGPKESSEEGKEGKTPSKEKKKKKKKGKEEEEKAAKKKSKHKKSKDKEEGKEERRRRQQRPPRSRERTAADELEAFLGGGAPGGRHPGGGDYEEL
UniProt Q9ULZ3, whole entry, looked up: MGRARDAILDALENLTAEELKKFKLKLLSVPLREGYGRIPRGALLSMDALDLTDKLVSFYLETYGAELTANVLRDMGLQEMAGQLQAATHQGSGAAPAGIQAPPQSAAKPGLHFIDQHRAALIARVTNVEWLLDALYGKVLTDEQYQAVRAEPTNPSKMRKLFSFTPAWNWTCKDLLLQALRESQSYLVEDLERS
UniProt Q92930: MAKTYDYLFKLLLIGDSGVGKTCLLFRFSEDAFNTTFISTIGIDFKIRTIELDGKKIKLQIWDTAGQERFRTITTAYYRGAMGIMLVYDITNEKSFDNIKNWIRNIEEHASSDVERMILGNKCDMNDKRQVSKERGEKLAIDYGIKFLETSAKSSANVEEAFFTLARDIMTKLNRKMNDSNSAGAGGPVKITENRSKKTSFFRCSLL

What was measured:
Assay in all cases: log2 fold change, soluble protein after heating vs DMSO (PISA); higher = thermal stabilisation; K562 lysate, 10 uM; active = over 0.2 and 3.5 SD of the protein, either way, in both replicates (recomputed)
lapatinib = compound: CS(=O)(=O)CCNCc1ccc(-c2ccc3ncnc(Nc4ccc(OCc5cccc(F)c5)c(Cl)c4)c3c2)o1 [lapatinib]
Outline: (§1)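 Following dounce homogenisation of K562 pellets in PBS pH 7.4 with 1 mM MgCl2, crude extract at 1 mg/mL protein was incubated for 30 min with 10 μM compound. Aliquots were then heated for 3 min over 48°C-58°C and pooled, NP-40 was added to 0.5% at 4°C, and soluble protein was recovered as the supernatant at 21,000xg for 90 min. Channel-sum-equalised TMTpro 16plex LC-MS/MS quantified this protein. Each value, from duplicates, is a log-two fold change in thermal stability relative to solvent controls.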

pictilisib = compound: CS(=O)(=O)N1CCN(Cc2cc3nc(-c4cccc5[nH]ncc45)nc(N4CCOCC4)c3s2)CC1 [pictilisib]
Outline: as §1

crizotinib = compound: C[C@@H](Oc1cc(-c2cnn(C3CCNCC3)c2)cnc1N)c1c(Cl)ccc(F)c1Cl [crizotinib]
Outline: as §1

[1] = compound: C[C@H](C1=CC=C(C=C1)C(=O)NC2=C3C=CNC3=NC=C2)N
Outline: as §1

duvelisib = compound: C[C@H](Nc1ncnc2nc[nH]c12)c1cc2cccc(Cl)c2c(=O)n1-c1ccccc1 [duvelisib]
Outline: as §1

gandotinib = compound: Cc1cc(Nc2cc(CN3CCOCC3)c3nc(C)c(Cc4ccc(Cl)cc4F)n3n2)n[nH]1 [gandotinib]
Outline: as §1

tozasertib = compound: Cc1cc(Nc2cc(N3CCN(C)CC3)nc(Sc3ccc(NC(=O)C4CC4)cc3)n2)n[nH]1 [tozasertib]
Outline: as §1

doramapimod = compound: Cc1ccc(-n2nc(C(C)(C)C)cc2NC(=O)Nc2ccc(OCCN3CCOCC3)c3ccccc23)cc1 [doramapimod]
Outline: as §1

bafetinib = compound: Cc1ccc(NC(=O)c2ccc(CN3CC[C@H](N(C)C)C3)c(C(F)(F)F)c2)cc1Nc1nccc(-c2cncnc2)n1 [bafetinib]
Outline: as §1

[2] = compound: Cc1cccc(CC(=O)N2CCc3c2ccc(-c2cn(C)c4ncnc(N)c24)c3F)n1
Outline: as §1

nilotinib = compound: Cc1cn(-c2cc(NC(=O)c3ccc(C)c(Nc4nccc(-c5cccnc5)n4)c3)cc(C(F)(F)F)c2)cn1 [nilotinib]
Outline: as §1

[3] = compound: Cc1nc(Nc2n[nH]c3c2CN(C(=O)N[C@H](CN(C)C)c2ccccc2)C3(C)C)c2sccc2n1
Outline: as §1

dasatinib = compound: Cc1nc(Nc2ncc(C(=O)Nc3c(C)cccc3Cl)s2)cc(N2CCN(CCO)CC2)n1 [dasatinib]
Outline: as §1

[4] = compound: Cc1ncc(-c2ccnc(Nc3ccc(S(C)(=O)=O)cc3)n2)n1C(C)C
Outline: as §1

[5] = compound: Cn1cc(-c2ccc3c(c2)CCN3C(=O)Cc2cccc(C(F)(F)F)c2)c2c(N)ncnc21
Outline: as §1

quisinostat = compound: Cn1cc(CNCC2CCN(c3ncc(C(=O)NO)cn3)CC2)c2ccccc21 [quisinostat]
Outline: as §1

tipifarnib = compound: Cn1cncc1[C@@](N)(c1ccc(Cl)cc1)c1ccc2c(c1)c(-c1cccc(Cl)c1)cc(=O)n2C [tipifarnib]
Outline: as §1

[6] = compound: NC(=O)Nc1cc(-c2cccc(F)c2)sc1C(=O)N[C@H]1CCCNC1
Outline: as §1

[7] = compound: NC(=O)c1cnc(N[C@@H]2CCCC[C@@H]2N)nc1Nc1cccc(-n2nccn2)c1
Outline: as §1

[8] = compound: NC1(c2ccc(-c3nc4ccn5c(=O)[nH]nc5c4cc3-c3ccccc3)cc2)CCC1
Outline: as §1

Target | log2 fold change (lapatinib) | log2 fold change (pictilisib) | log2 fold change (crizotinib) | log2 fold change [1] | log2 fold change (duvelisib) | log2 fold change (gandotinib) | log2 fold change (tozasertib) | log2 fold change (doramapimod) | log2 fold change (bafetinib) | log2 fold change [2] | log2 fold change (nilotinib) | log2 fold change [3] | log2 fold change (dasatinib) | log2 fold change [4] | log2 fold change [5] | log2 fold change (quisinostat) | log2 fold change (tipifarnib) | log2 fold change [6] | log2 fold change [7] | log2 fold change [8]
RAB4B isoform 2 (UniProt P61018) | inactive: -0.057 | inactive: -0.017 | inactive: 0.052 | inactive: -0.033 | inactive: 0.02 | inactive: -0.036 | inactive: 0.05 | inactive: 0.001 | inactive: 0.007 | inactive: 0.018 | inactive: 0.026 | inactive: 0.017 | inactive: -0.064 | inactive: -0.017 | inactive: 0.255 | inactive: 0 | inactive: -0.08 | inactive: -0.002 | inactive: 0.011 | inactive: 0.021
PXMP2 (UniProt Q9NR77) | inactive: 0.02 | inactive: -0.063 | inactive: -0.003 | inactive: -0.058 | inactive: 0.016 | inactive: 0.031 | inactive: 0.012 | inactive: 0.017 | inactive: 0.047 | inactive: 0.07 | inactive: 0.023 | inactive: -0.018 | inactive: -0.007 | inactive: -0.003 | inactive: -0.017 | inactive: 0.012 | inactive: -0.033 | inactive: -0.041 | inactive: 0.003 | inactive: -0.023
RAPGEF2, A0A2R8YGD3 | inactive: -0.014 | inactive: 0.015 | inactive: 0.024 | active: -0.431 | inactive: 0.018 | inactive: 0.038 | inactive: 0.014 | inactive: -0.039 | inactive: -0.171 | inactive: 0.266 | inactive: -0.032 | inactive: 0.027 | inactive: 0.052 | inactive: -0.036 | inactive: 0.008 | inactive: -0.018 | inactive: -0.017 | inactive: 0.054 | inactive: -0.02 | inactive: 0.024
PXMP4 (UniProt Q9Y6I8) | inactive: -0.071 | inactive: 0.066 | inactive: -0.29 | inactive: -0.068 | inactive: -0.112 | inactive: -0.221 | inactive: -0.034 | inactive: 0.238 | inactive: -0.148 | inactive: 0.194 | inactive: -0.011 | inactive: 0.014 | inactive: 0.078 | inactive: 0.013 | inactive: -0.092 | inactive: -0.146 | active: 0.846 | inactive: 0.018 | inactive: -0.018 | inactive: -0.215
RANBP6 (UniProt O60518) | inactive: -0.007 | inactive: -0.005 | inactive: -0.125 | inactive: -0.067 | inactive: 0.019 | inactive: -0.01 | inactive: 0.012 | inactive: 0.039 | inactive: 0.016 | inactive: 0.148 | inactive: 0.039 | inactive: -0.036 | inactive: -0.002 | inactive: -0.071 | inactive: 0.049 | inactive: -0.063 | inactive: -0.072 | inactive: 0.055 | inactive: 0.062 | inactive: -0.06
RABL6 (UniProt Q3YEC7) | inactive: 0.031 | inactive: -0.013 | inactive: 0.016 | inactive: -0.04 | inactive: -0.004 | inactive: 0.062 | inactive: 0.014 | inactive: 0.038 | inactive: -0.018 | inactive: 0.014 | inactive: -0.039 | inactive: 0.022 | inactive: 0.039 | inactive: 0.017 | inactive: 0.008 | inactive: -0.022 | inactive: 0.003 | inactive: -0.015 | inactive: -0.016 | inactive: -0.006
PYCARD isoform 2 (UniProt Q9ULZ3) | inactive: -0.135 | inactive: -0.003 | inactive: 0.165 | inactive: 0.018 |  | inactive: -0.126 |  | inactive: 0.02 | inactive: 0.127 | inactive: 0.013 |  |  |  |  |  | inactive: -0.122 |  | inactive: 0.033 | inactive: 0.104 | inactive: 0.217
RAB8B (UniProt Q92930) | inactive: 0.065 | inactive: -0.018 | inactive: 0.034 | inactive: 0.037 | inactive: 0.098 | active: -0.289 | inactive: 0.003 | inactive: -0.013 | inactive: 0.088 | inactive: -0.079 | inactive: -0.136 | inactive: -0.011 | inactive: -0.038 | inactive: -0.033 | inactive: -0.096 | inactive: -0.035 | inactive: 0.075 | inactive: 0.019 | inactive: 0.099 | inactive: 0.029
